Data source: PubChem BioAssay AID743121 (NCATS, 2013)

Assay: 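Genes whose silencing strengthens cell killing by camptothecin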 (primary screen)
Cell system: MDA-MB-231 cells, a human breast cancer line
Knock-down reagent: single siRNA against human genes, 20 nM siRNA (0.8 pmol per well)
Duration: 120 h (drug added 48 h after transfection, read 72 h later)
Challenge: camptothecin 20 nM (about EC30) for 72 h; vehicle 0.1% DMSO in parallel plates
Read-out: 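Cell viability by ATP luminescence (CellTiter-Glo) as % of non-targeting siRNA wells, and the log2 ratio of viability without drug over viability with camptothecin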
Scale: log2 vehicle/camptothecin viability: higher = stronger sensitisation to camptothecin; viability with camptothecin and viability without drug: higher = more viable cells
Call rule: 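Active genes have an RSA gene-level p-value below 0.001, computed from the ratios of their separate siRNAs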
In all, the deposit lists about 26,000 reagents; below is a part drawn at random. Over the whole deposit, 167 (0.63%) were called active. 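Calls are per gene from RSA p-values that are not deposited; an individual active-marked siRNA can sensitise only weakly.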 Reagents against one gene are numbered here. No sequences are given here.

no.	gene	reagent	log2 vehicle/camptothecin viability	viability with camptothecin (% of control)	viability without drug (% of control)	Outcome
1	TBXA2R (GeneID 6915)	1	-0.0616	88.3	84.6	inactive
2	TBXA2R (GeneID 6915)	2	-0.473	94.4	68	inactive
3	TBXA2R (GeneID 6915)	3	-0.148	68.1	61.5	inactive
4	TBXA2R (GeneID 6915)	4	-0.18	101	89.3	inactive
5	ST13 (GeneID 6767)	1	0.232	67.5	79.3	inactive
6	ST13 (GeneID 6767)	2	-0.253	95.5	80.1	inactive
7	ST13 (GeneID 6767)	3	-0.133	87.3	79.6	inactive
8	ST13 (GeneID 6767)	4	-0.341	105	82.5	inactive
9	CTAG1B (GeneID 1485)	1	-0.0709	62.1	59.1	inactive
10	CTAG1B (GeneID 1485)	2	-0.0651	84.5	80.8	inactive
11	CTAG1B (GeneID 1485)	3	0.375	57.4	74.5	inactive
12	CAMLG (GeneID 819)	1	0.176	81.5	92.1	inactive
13	CAMLG (GeneID 819)	2	-0.0801	39.4	37.3	inactive
14	CAMLG (GeneID 819)	3	0.206	78.5	90.5	inactive
15	CAMLG (GeneID 819)	4	-0.0693	94.7	90.3	inactive
16	REEP5 (GeneID 7905)	1	-0.293	106	86.5	inactive
17	REEP5 (GeneID 7905)	2	-0.317	92	73.9	inactive
18	REEP5 (GeneID 7905)	3	0.00336	74.1	74.3	inactive
19	REEP5 (GeneID 7905)	4	-0.266	100	83.5	inactive
20	EIF2D (GeneID 1939)	1	-0.27	51.7	42.9	inactive
21	EIF2D (GeneID 1939)	2	-0.09	74.8	70.3	inactive
22	EIF2D (GeneID 1939)	3	-0.296	55.9	45.5	inactive
23	EIF2D (GeneID 1939)	4	-0.549	117	80.2	inactive
24	PAPSS1 (GeneID 9061)	1	0.292	73.3	89.7	inactive
25	PAPSS1 (GeneID 9061)	2	-0.558	72.3	49.1	inactive
26	PAPSS1 (GeneID 9061)	3	-0.171	113	101	inactive
27	PAPSS1 (GeneID 9061)	4	0.643	12.3	19.1	inactive
28	FN3K (GeneID 64122)	1	-0.546	81.8	56	inactive
29	FN3K (GeneID 64122)	2	-0.471	95.5	68.8	inactive
30	FN3K (GeneID 64122)	3	-0.239	70.3	59.5	inactive
31	FN3K (GeneID 64122)	4	-0.00379	55.2	55	inactive
32	ACVR2A (GeneID 92)	1	-0.0666	99.7	95.2	inactive
33	ACVR2A (GeneID 92)	2	-0.23	98.7	84.2	inactive
34	ACVR2A (GeneID 92)	3	-0.0086	94.8	94.3	inactive
35	ACVR2A (GeneID 92)	4	1.08	1.84	3.9	inactive
36	PPFIA2 (GeneID 8499)	1	0.17	62.5	70.4	inactive
37	PPFIA2 (GeneID 8499)	2	-0.00717	31.5	31.4	inactive
38	PPFIA2 (GeneID 8499)	3	0.446	2.23	3.04	inactive
39	PPFIA2 (GeneID 8499)	4	-0.0773	87.9	83.3	inactive
40	GPR52 (GeneID 9293)	1	-0.461	66.2	48.1	inactive
41	GPR52 (GeneID 9293)	2	-0.205	93.2	80.9	inactive
42	GPR52 (GeneID 9293)	3	0.22	81.5	94.9	inactive
43	GPR52 (GeneID 9293)	4	-0.206	78	67.6	inactive
44	MUC5AC (GeneID 4586)	1	1.22	9.68	22.5	inactive

A portion from the list above:
no.	gene	reagent	log2 vehicle/camptothecin viability	viability with camptothecin (% of control)	viability without drug (% of control)	Outcome
17	REEP5 (GeneID 7905)	2	-0.317	92	73.9	inactive
18	REEP5 (GeneID 7905)	3	0.00336	74.1	74.3	inactive
19	REEP5 (GeneID 7905)	4	-0.266	100	83.5	inactive
20	EIF2D (GeneID 1939)	1	-0.27	51.7	42.9	inactive
21	EIF2D (GeneID 1939)	2	-0.09	74.8	70.3	inactive
22	EIF2D (GeneID 1939)	3	-0.296	55.9	45.5	inactive
23	EIF2D (GeneID 1939)	4	-0.549	117	80.2	inactive
24	PAPSS1 (GeneID 9061)	1	0.292	73.3	89.7	inactive
25	PAPSS1 (GeneID 9061)	2	-0.558	72.3	49.1	inactive

The list goes on.
no.	gene	reagent	log2 vehicle/camptothecin viability	viability with camptothecin (% of control)	viability without drug (% of control)	Outcome
45	SPR (GeneID 6697)	1	-0.256	119	99.3	inactive
46	SPR (GeneID 6697)	2	0.0272	76	77.5	inactive
47	SPR (GeneID 6697)	3	0.0638	98	102	inactive
48	SPR (GeneID 6697)	4	0.0825	99.3	105	inactive
49	PDE2A (GeneID 5138)	1	-0.00567	103	102	inactive
50	PDE2A (GeneID 5138)	2	0.112	68.8	74.3	inactive
51	PDE2A (GeneID 5138)	3	0.86	8.36	15.2	inactive
52	PDE2A (GeneID 5138)	4	0.404	39	51.6	inactive
53	PARPBP (GeneID 55010)	1	0.0902	35.6	37.9	inactive
54	PARPBP (GeneID 55010)	2	0.206	67.9	78.4	inactive
55	PARPBP (GeneID 55010)	3	-0.496	54.1	38.4	inactive
56	OR5F1 (GeneID 338674)	1	-0.534	82.3	56.8	inactive
57	OR5F1 (GeneID 338674)	2	-0.27	49.9	41.4	inactive
58	OR5F1 (GeneID 338674)	3	-0.333	115	90.9	inactive
59	OR5F1 (GeneID 338674)	4	-0.485	84.5	60.3	inactive
60	ETV4 (GeneID 2118)	1	-0.2	46	40.1	inactive
61	ETV4 (GeneID 2118)	2	-0.342	62.5	49.3	inactive
62	ETV4 (GeneID 2118)	3	-0.481	77.5	55.5	inactive
63	ETV4 (GeneID 2118)	4	-0.0567	48.5	46.6	inactive
64	LOX (GeneID 4015)	1	0.117	41	44.5	inactive
65	LOX (GeneID 4015)	2	-0.577	79.5	53.3	inactive
66	LOX (GeneID 4015)	3	-0.127	107	98.3	inactive
67	FANCD2 (GeneID 2177)	1	-0.605	96.8	63.6	inactive
68	FANCD2 (GeneID 2177)	2	-0.333	96.6	76.7	inactive
69	FANCD2 (GeneID 2177)	3	-0.0331	109	107	inactive
70	FANCD2 (GeneID 2177)	4	-0.0943	84.2	78.8	inactive
